Source: publication PMC3548793
These are yes or no findings as the source states them, for the method shown. In cells and extracts the contact can be indirect. Some entries that bind do so weakly or less than the wild type. Where a sequence is shown, tags or fusion partners need not be part of it.

T1: GFP-Sec13 (UniProt P55735)
T1 sequence: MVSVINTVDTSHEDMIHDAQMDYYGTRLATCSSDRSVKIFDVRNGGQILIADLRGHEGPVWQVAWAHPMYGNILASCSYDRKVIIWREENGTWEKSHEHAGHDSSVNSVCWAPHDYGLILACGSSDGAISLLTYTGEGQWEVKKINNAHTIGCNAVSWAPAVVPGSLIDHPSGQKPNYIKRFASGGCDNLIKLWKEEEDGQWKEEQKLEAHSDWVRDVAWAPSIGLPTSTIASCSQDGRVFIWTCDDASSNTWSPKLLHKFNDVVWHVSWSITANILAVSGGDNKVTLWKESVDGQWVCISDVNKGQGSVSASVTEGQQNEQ


biological target: T1, GFP-Sec13; assay: co-IP; HEK293 cells co-transfected with FLAG-tagged Sec31 (WT or mutants) and GFP-tagged Sec23 or GFP-Sec13; GFP-tagged protein immunoprecipitated with anti-GFP beads, blot with anti-FLAG; 10 mM HEPES-KOH pH 7.4, 100 mM KCl, 0.1 mM DTT, 2.5 mM MgCl2, 1% Triton X-100, 30 min at 4°C; in Figure 6 cells transfected two days before with or without siRNA1 to CK2 alpha1

| Binder | binding |
| --- | --- |
| FLAG-tagged Sec31 S527A/S799A (protein, UniProt O94979 1-1220) MKLKEVDRTAMQAWSPAQNHPIYLATGTSAQQLDATFSTNASLEIFELDLSDPSLDMKSCATFSSSHRYHKLIWGPYKMDSKGDVSGVLIAGGENGNIILYDPSKIIAGDKEVVIAQNDKHTGPVRALDVNIFQTNLVASGANESEIYIWDLNNFATPMTPGAKTQPPEDISCIAWNRQVQHILASASPSGRATVWDLRKNEPIIKVSDHSNRMHCSGLAWHPDVATQMVLASEDDRLPVIQMWDLRFASSPLRVLENHARGILAIAWSMADPELLLSCGKDAKILCSNPNTGEVLYELPTNTQWCFDIQWCPRNPAVLSAASFDGRISVYSIMGGSTDGLRQKQVDKLSSSFGNLDPFGTGQPLPPLQIPQQTAQHSIVLPLKKPPKWIRRPVGASFSFGGKLVTFENVRMPSHQGAEQQQQQHHVFISQVVTEKEFLSRSDQLQQAVQSQGFINYCQKKIDASQTEFEKNVWSFLKVNFEDDSRGKYLELLGYRKEDLGKKIALALNKVDGANVALKDSDQVAQADGEESPAAEEQLLGEHIKEEKEESEFLPSSGGTFNISVSGDIDGLITQALLTGNFESAVDLCLHDNRMADAIILAIAGGQELLARTQKKYFAKSQSKITRLITAVVMKNWKEIVESCDLKNWREALAAVLTYAKPDEFSALCDLLGTRLENEGDSLLQTQACLCYICAGNVEKLVACWTKAQDGSHPLSLQDLIEKVVILRKAVQLTQAMDTSTVGVLLAAKMSQYANLLAAQGSIAAALAFLPDNTNQPNIMQLRDRLCRAQGEPVAGHEAPKIPYEKQQLPKGRPGPVAGHHQMPRVQTQQYYPHGENPPPPGFIMHGNVNPNAAGQLPTSPGHMHTQVPPYPQPQPYQPAQPYPFGTGGSAMYRPQQPVAPPTSNAYPNTPYISSASSYTGQSQLYAAQHQASSPTSSPATSFPPPPSSGASFQHGGPGAPPSSSAYALPPGTTGTLPAASELPASQRTGPQNGWNDPPALNRVPKKKKMPENFMPPVPITSPIMNPLGDPQSQMLQQQPSAPVPLSSQSSFPQPHLPGGQPFHGVQQPLGQTGMPPSFSKPNIEGAPGAPIGNTFQHVQSLPTKKITKKPIPDEHLILKTTFEDLIQRCLSSATDPQTKRKLDDASKRLEFLYDKLREQTLSPTITSGLHNIARSIETRNYSEGLTMHTHIVSTSNFSETSAFMPVLKVVLTQANKLGV | binds |
| FLAG-tagged Sec31 S527A (protein, UniProt O94979 1-1220) MKLKEVDRTAMQAWSPAQNHPIYLATGTSAQQLDATFSTNASLEIFELDLSDPSLDMKSCATFSSSHRYHKLIWGPYKMDSKGDVSGVLIAGGENGNIILYDPSKIIAGDKEVVIAQNDKHTGPVRALDVNIFQTNLVASGANESEIYIWDLNNFATPMTPGAKTQPPEDISCIAWNRQVQHILASASPSGRATVWDLRKNEPIIKVSDHSNRMHCSGLAWHPDVATQMVLASEDDRLPVIQMWDLRFASSPLRVLENHARGILAIAWSMADPELLLSCGKDAKILCSNPNTGEVLYELPTNTQWCFDIQWCPRNPAVLSAASFDGRISVYSIMGGSTDGLRQKQVDKLSSSFGNLDPFGTGQPLPPLQIPQQTAQHSIVLPLKKPPKWIRRPVGASFSFGGKLVTFENVRMPSHQGAEQQQQQHHVFISQVVTEKEFLSRSDQLQQAVQSQGFINYCQKKIDASQTEFEKNVWSFLKVNFEDDSRGKYLELLGYRKEDLGKKIALALNKVDGANVALKDSDQVAQADGEESPAAEEQLLGEHIKEEKEESEFLPSSGGTFNISVSGDIDGLITQALLTGNFESAVDLCLHDNRMADAIILAIAGGQELLARTQKKYFAKSQSKITRLITAVVMKNWKEIVESCDLKNWREALAAVLTYAKPDEFSALCDLLGTRLENEGDSLLQTQACLCYICAGNVEKLVACWTKAQDGSHPLSLQDLIEKVVILRKAVQLTQAMDTSTVGVLLAAKMSQYANLLAAQGSIAAALAFLPDNTNQPNIMQLRDRLCRAQGEPVAGHESPKIPYEKQQLPKGRPGPVAGHHQMPRVQTQQYYPHGENPPPPGFIMHGNVNPNAAGQLPTSPGHMHTQVPPYPQPQPYQPAQPYPFGTGGSAMYRPQQPVAPPTSNAYPNTPYISSASSYTGQSQLYAAQHQASSPTSSPATSFPPPPSSGASFQHGGPGAPPSSSAYALPPGTTGTLPAASELPASQRTGPQNGWNDPPALNRVPKKKKMPENFMPPVPITSPIMNPLGDPQSQMLQQQPSAPVPLSSQSSFPQPHLPGGQPFHGVQQPLGQTGMPPSFSKPNIEGAPGAPIGNTFQHVQSLPTKKITKKPIPDEHLILKTTFEDLIQRCLSSATDPQTKRKLDDASKRLEFLYDKLREQTLSPTITSGLHNIARSIETRNYSEGLTMHTHIVSTSNFSETSAFMPVLKVVLTQANKLGV | binds |

The remaining lines, values ahead:

| binding | Binder |
| --- | --- |
| binds | FLAG-tagged Sec31 S799A (protein, UniProt O94979 1-1220) MKLKEVDRTAMQAWSPAQNHPIYLATGTSAQQLDATFSTNASLEIFELDLSDPSLDMKSCATFSSSHRYHKLIWGPYKMDSKGDVSGVLIAGGENGNIILYDPSKIIAGDKEVVIAQNDKHTGPVRALDVNIFQTNLVASGANESEIYIWDLNNFATPMTPGAKTQPPEDISCIAWNRQVQHILASASPSGRATVWDLRKNEPIIKVSDHSNRMHCSGLAWHPDVATQMVLASEDDRLPVIQMWDLRFASSPLRVLENHARGILAIAWSMADPELLLSCGKDAKILCSNPNTGEVLYELPTNTQWCFDIQWCPRNPAVLSAASFDGRISVYSIMGGSTDGLRQKQVDKLSSSFGNLDPFGTGQPLPPLQIPQQTAQHSIVLPLKKPPKWIRRPVGASFSFGGKLVTFENVRMPSHQGAEQQQQQHHVFISQVVTEKEFLSRSDQLQQAVQSQGFINYCQKKIDASQTEFEKNVWSFLKVNFEDDSRGKYLELLGYRKEDLGKKIALALNKVDGANVALKDSDQVAQSDGEESPAAEEQLLGEHIKEEKEESEFLPSSGGTFNISVSGDIDGLITQALLTGNFESAVDLCLHDNRMADAIILAIAGGQELLARTQKKYFAKSQSKITRLITAVVMKNWKEIVESCDLKNWREALAAVLTYAKPDEFSALCDLLGTRLENEGDSLLQTQACLCYICAGNVEKLVACWTKAQDGSHPLSLQDLIEKVVILRKAVQLTQAMDTSTVGVLLAAKMSQYANLLAAQGSIAAALAFLPDNTNQPNIMQLRDRLCRAQGEPVAGHEAPKIPYEKQQLPKGRPGPVAGHHQMPRVQTQQYYPHGENPPPPGFIMHGNVNPNAAGQLPTSPGHMHTQVPPYPQPQPYQPAQPYPFGTGGSAMYRPQQPVAPPTSNAYPNTPYISSASSYTGQSQLYAAQHQASSPTSSPATSFPPPPSSGASFQHGGPGAPPSSSAYALPPGTTGTLPAASELPASQRTGPQNGWNDPPALNRVPKKKKMPENFMPPVPITSPIMNPLGDPQSQMLQQQPSAPVPLSSQSSFPQPHLPGGQPFHGVQQPLGQTGMPPSFSKPNIEGAPGAPIGNTFQHVQSLPTKKITKKPIPDEHLILKTTFEDLIQRCLSSATDPQTKRKLDDASKRLEFLYDKLREQTLSPTITSGLHNIARSIETRNYSEGLTMHTHIVSTSNFSETSAFMPVLKVVLTQANKLGV |
| binds | FLAG-tagged wild type (WT) Sec31 (protein, UniProt O94979 1-1220) MKLKEVDRTAMQAWSPAQNHPIYLATGTSAQQLDATFSTNASLEIFELDLSDPSLDMKSCATFSSSHRYHKLIWGPYKMDSKGDVSGVLIAGGENGNIILYDPSKIIAGDKEVVIAQNDKHTGPVRALDVNIFQTNLVASGANESEIYIWDLNNFATPMTPGAKTQPPEDISCIAWNRQVQHILASASPSGRATVWDLRKNEPIIKVSDHSNRMHCSGLAWHPDVATQMVLASEDDRLPVIQMWDLRFASSPLRVLENHARGILAIAWSMADPELLLSCGKDAKILCSNPNTGEVLYELPTNTQWCFDIQWCPRNPAVLSAASFDGRISVYSIMGGSTDGLRQKQVDKLSSSFGNLDPFGTGQPLPPLQIPQQTAQHSIVLPLKKPPKWIRRPVGASFSFGGKLVTFENVRMPSHQGAEQQQQQHHVFISQVVTEKEFLSRSDQLQQAVQSQGFINYCQKKIDASQTEFEKNVWSFLKVNFEDDSRGKYLELLGYRKEDLGKKIALALNKVDGANVALKDSDQVAQSDGEESPAAEEQLLGEHIKEEKEESEFLPSSGGTFNISVSGDIDGLITQALLTGNFESAVDLCLHDNRMADAIILAIAGGQELLARTQKKYFAKSQSKITRLITAVVMKNWKEIVESCDLKNWREALAAVLTYAKPDEFSALCDLLGTRLENEGDSLLQTQACLCYICAGNVEKLVACWTKAQDGSHPLSLQDLIEKVVILRKAVQLTQAMDTSTVGVLLAAKMSQYANLLAAQGSIAAALAFLPDNTNQPNIMQLRDRLCRAQGEPVAGHESPKIPYEKQQLPKGRPGPVAGHHQMPRVQTQQYYPHGENPPPPGFIMHGNVNPNAAGQLPTSPGHMHTQVPPYPQPQPYQPAQPYPFGTGGSAMYRPQQPVAPPTSNAYPNTPYISSASSYTGQSQLYAAQHQASSPTSSPATSFPPPPSSGASFQHGGPGAPPSSSAYALPPGTTGTLPAASELPASQRTGPQNGWNDPPALNRVPKKKKMPENFMPPVPITSPIMNPLGDPQSQMLQQQPSAPVPLSSQSSFPQPHLPGGQPFHGVQQPLGQTGMPPSFSKPNIEGAPGAPIGNTFQHVQSLPTKKITKKPIPDEHLILKTTFEDLIQRCLSSATDPQTKRKLDDASKRLEFLYDKLREQTLSPTITSGLHNIARSIETRNYSEGLTMHTHIVSTSNFSETSAFMPVLKVVLTQANKLGV |
